Experimental data as given in paper PMC4378271.
These are yes or no findings as the source states them, for the method shown. In cells and extracts the contact can be indirect. Some entries that bind do so weakly or less than the wild type.

Amino acid sequences for entries named in this document (tags omitted). Residues count along the entry.
UniProt Q3UVX5, residues 19-1203: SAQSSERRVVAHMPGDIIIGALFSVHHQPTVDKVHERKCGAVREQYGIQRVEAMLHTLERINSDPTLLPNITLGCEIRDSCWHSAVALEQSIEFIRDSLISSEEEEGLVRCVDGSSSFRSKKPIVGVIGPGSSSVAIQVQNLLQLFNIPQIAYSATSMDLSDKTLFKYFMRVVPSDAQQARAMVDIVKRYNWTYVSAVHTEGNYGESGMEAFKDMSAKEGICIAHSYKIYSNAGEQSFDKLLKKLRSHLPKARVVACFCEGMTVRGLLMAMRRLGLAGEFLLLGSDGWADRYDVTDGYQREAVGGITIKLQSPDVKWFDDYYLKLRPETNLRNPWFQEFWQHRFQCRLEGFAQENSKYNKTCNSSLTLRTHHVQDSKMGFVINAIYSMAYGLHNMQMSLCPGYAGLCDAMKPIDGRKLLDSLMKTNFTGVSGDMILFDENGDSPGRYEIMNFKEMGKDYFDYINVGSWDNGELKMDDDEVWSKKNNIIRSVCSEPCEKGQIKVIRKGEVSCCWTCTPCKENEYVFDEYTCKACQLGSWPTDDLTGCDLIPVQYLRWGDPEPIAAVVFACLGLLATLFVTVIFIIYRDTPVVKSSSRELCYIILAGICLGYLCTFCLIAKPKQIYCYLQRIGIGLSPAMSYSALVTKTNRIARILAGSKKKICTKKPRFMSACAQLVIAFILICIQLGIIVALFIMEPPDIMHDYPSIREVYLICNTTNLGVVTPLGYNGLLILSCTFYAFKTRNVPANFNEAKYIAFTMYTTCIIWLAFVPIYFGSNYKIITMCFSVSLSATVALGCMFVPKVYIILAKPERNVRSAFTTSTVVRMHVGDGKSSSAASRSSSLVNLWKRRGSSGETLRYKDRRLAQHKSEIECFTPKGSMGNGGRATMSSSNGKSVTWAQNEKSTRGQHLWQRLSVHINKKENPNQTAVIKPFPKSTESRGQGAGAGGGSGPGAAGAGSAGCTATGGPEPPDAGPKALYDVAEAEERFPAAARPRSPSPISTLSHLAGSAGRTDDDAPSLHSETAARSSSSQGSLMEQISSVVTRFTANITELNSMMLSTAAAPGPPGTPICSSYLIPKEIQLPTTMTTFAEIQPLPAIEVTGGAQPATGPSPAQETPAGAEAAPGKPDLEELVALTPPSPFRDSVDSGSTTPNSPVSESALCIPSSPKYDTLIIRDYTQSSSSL
UniProt P11798: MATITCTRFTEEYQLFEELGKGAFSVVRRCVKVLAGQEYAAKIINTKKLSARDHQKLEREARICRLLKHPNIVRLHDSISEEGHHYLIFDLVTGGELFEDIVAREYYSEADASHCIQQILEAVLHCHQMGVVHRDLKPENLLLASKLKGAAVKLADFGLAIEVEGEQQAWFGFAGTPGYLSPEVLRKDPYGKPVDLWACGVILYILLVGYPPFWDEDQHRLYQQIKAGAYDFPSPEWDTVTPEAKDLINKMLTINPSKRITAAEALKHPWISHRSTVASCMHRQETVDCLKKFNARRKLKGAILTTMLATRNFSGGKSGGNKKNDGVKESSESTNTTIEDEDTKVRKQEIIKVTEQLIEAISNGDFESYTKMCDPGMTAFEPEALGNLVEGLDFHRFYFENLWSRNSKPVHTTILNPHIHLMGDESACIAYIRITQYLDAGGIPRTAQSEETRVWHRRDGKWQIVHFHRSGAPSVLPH

Target: endogenous mGluR5a (mouse hippocampus) (mouse (endogenous in hippocampus)) (UniProt Q3UVX5)
Test: co-IP; adult CD-1 mouse hippocampal lysate (0.5% Triton X-100), 1 mg protein, protein G sepharose with rabbit polyclonal mGluR5 antibody; blot for CaMKIIα

binding: binds
Substance: Ca2+/Calmodulin Kinase IIα (endogenous, mouse) (from UniProt P11798 1-478)
